This note sets out measurements from PubChem BioAssay AID248 (DTP/NCI, 2004).

The list does not hold the whole screen: it gathers tests that were run many times, whatever their T/C, doses with no T/C, and many T/C values between a quarter and a half above the control. Further doses and runs are listed elsewhere. T/C is the treated group as % of the vehicle group. Some doses have a count of surviving animals in place of a T/C: the source files T/C as zero there, which appears to mark a toxic dose or a test without result, not a measured value. Some doses without a T/C left all or most animals alive at the check, yet need not have been tolerated: the source hardly ever lists a survival T/C far under the control, and the zero likely stands for such cases as well. Counts of survivors are from the toxicity check (mostly the fifth day) where no day follows; animals may have died later. Schedules are NCI's codes, read here as Q, the interval in days (D) or hours (H), X, the number of doses. Some structures stand for samples that the source files as different forms (salt, stereo form or complex); doses refer to the form tested. Some entries were tested several times; their values stand side by side, smallest first. Where survival is the endpoint, this PubChem deposit counts one and a half times the control or more as active, and values a quarter to a half above the control carry no call in these data; other NCI protocols may use other cut-offs.

The assay deals with L1210 leukemia ip in BDF1 mice, survival T/C. In words: NCI In Vivo Anticancer Drug Screen. Data for tumor model L1210 Leukemia (intraperitoneal) in B6D2F1 (BDF1) mice. The note with it: T/C endpoint: mean survival time, higher T/C = longer survival.
[1] abbreviates: dose: 400.0 mg/kg/injection, schedule: Q04DX003 (ip), vehicle: Klucel (hydroxypropylcellulose) (HPC).
[2] abbreviates: dose: 400.0 mg/kg/injection, schedule: Q01DX001 (ip), vehicle: saline.
[3] abbreviates: dose: 100.0 mg/kg/injection, schedule: Q01DX009 (ip), vehicle: water.
Where [4] appears, read: dose: 200.0 mg/kg/injection, schedule: Q01DX009 (ip), vehicle: water.
Setting [5] is: dose: 400.0 mg/kg/injection, schedule: Q01DX009 (ip), vehicle: water.
Where [6] appears, read: dose: 400.0 mg/kg/injection, schedule: Q04DX003 (ip), vehicle: water.
Setting [7] is: dose: 25.0 mg/kg/injection, schedule: Q01DX009 (ip), vehicle: saline with Tween-80.
[8] abbreviates: dose: 400.0 mg/kg/injection, schedule: Q01DX009 (ip), vehicle: saline with Tween-80.
[9] abbreviates: dose: 200.0 mg/kg/injection, schedule: Q01DX009 (ip), vehicle: Klucel (hydroxypropylcellulose) (HPC).
[10] abbreviates: dose: 400.0 mg/kg/injection, schedule: Q01DX009 (ip), vehicle: Klucel (hydroxypropylcellulose) (HPC).
Where [11] appears, read: dose: 400.0 mg/kg/injection, schedule: Q04DX003 (ip), vehicle: saline.

As for `Cc1ccc(S(=O)(=O)OCC(CO)(COS(=O)(=O)c2ccc(C)cc2)[N+](=O)[O-])cc1`, under setting [1], the survivor count is recorded as 1 of 6.

For the molecule `CCCCNC(C)(C)C(SSC(c1cccs1)C(C)(C)NCCCC)c1cccs1` (configuration not stated), the survivor count was 0 of 6 (dose: 200.0 mg/kg/injection, schedule: Q04DX003 (ip), vehicle: saline sonified) and 0 of 6 (dose: 400.0 mg/kg/injection, schedule: Q04DX003 (ip), vehicle: saline sonified).

In the case of `CN(C)N=Nc1ccccc1CO`, the survivor count is 6 of 6 (dose: 6.25 mg/kg/injection, schedule: Q04DX003 (ip), vehicle: other); 3 of 6 (dose: 12.5 mg/kg/injection, schedule: Q01DX009 (ip), vehicle: other); 6 of 6 (dose: 12.5 mg/kg/injection, schedule: Q04DX003 (ip), vehicle: other); 1 of 6 (dose: 25.0 mg/kg/injection, schedule: Q01DX009 (ip), vehicle: other); 6 of 6 (dose: 25.0 mg/kg/injection, schedule: Q04DX003 (ip), vehicle: other); 0 of 6 (dose: 50.0 mg/kg/injection, schedule: Q01DX009 (ip), vehicle: other). The survivor count runs as follows: (dose: 100.0 mg/kg/injection, schedule: Q01DX009 (ip), vehicle: other) 0 of 6; (dose: 100.0 mg/kg/injection, schedule: Q04DX003 (ip), vehicle: other) 0 of 6; (dose: 200.0 mg/kg/injection, schedule: Q01DX009 (ip), vehicle: other) 0 of 6; (dose: 200.0 mg/kg/injection, schedule: Q04DX003 (ip), vehicle: other) 0 of 6; (dose: 400.0 mg/kg/injection, schedule: Q01DX009 (ip), vehicle: other) 0 of 6.

On to `CC1CN(CCCCO)C(=O)NC1=O` (configuration not stated), for which, under setting [2], the survivor count is listed as 6 of 6.

Consider `COc1cc2c[n+](C)c3c4cc(OC)c(OC)cc4ccc3c2cc1OC`, for which the T/C by setting is: (dose: 34.0 mg/kg/injection, schedule: Q01DX009 (ip), vehicle: saline) 132 % of control; (dose: 50.0 mg/kg/injection, schedule: Q01DX009 (ip), vehicle: saline) 131 % of control; (dose: 52.0 mg/kg/injection, schedule: Q01DX009 (ip), vehicle: saline) 130 % of control; (dose: 80.0 mg/kg/injection, schedule: Q01DX009 (ip), vehicle: saline) 136 % of control; (dose: 100.0 mg/kg/injection, schedule: Q01DX009 (ip), vehicle: saline) 134 % of control; under setting [3], 128 % of control. The T/C (dose: 120.0 mg/kg/injection, schedule: Q01DX009 (ip), vehicle: saline) is 138 % of control and the T/C under setting [6] is 134 % of control. Further, the survivor count was 2 of 6 and 3 of 6 under setting [4]; 5 of 6 (dose: 270.0 mg/kg/injection, schedule: Q01DX009 (ip), vehicle: saline); 6 of 6 (dose: 400.0 mg/kg/injection, schedule: Q01DX009 (ip), vehicle: saline); 0 of 6 under setting [5]; 3 of 6 (dose: 666.0 mg/kg/injection, schedule: Q04DX003 (ip), vehicle: water).

With `O=[N+]([O-])/C=C\C(Cl)(Cl)Cl`, the survivor count under setting [7] is recorded as 0 of 6; the survivor count (dose: 50.0 mg/kg/injection, schedule: Q01DX009 (ip), vehicle: saline with Tween-80) is listed as 0 of 6; the survivor count (dose: 100.0 mg/kg/injection, schedule: Q01DX009 (ip), vehicle: saline with Tween-80) is 0 of 6; the survivor count (dose: 200.0 mg/kg/injection, schedule: Q01DX009 (ip), vehicle: saline with Tween-80) is given as 0 of 6; the survivor count under setting [8] is on record as 0 of 6.

As to `C/C(=C\c1ccccc1)C(=O)c1ccccc1`, the survivor count (dose: 25.0 mg/kg/injection, schedule: Q01DX009 (ip), vehicle: water) is listed as 6 of 6; the survivor count (dose: 50.0 mg/kg/injection, schedule: Q01DX009 (ip), vehicle: water) was 6 of 6; the survivor count under setting [3] was 6 of 6; the survivor count under setting [4] was 6 of 6; the survivor count under setting [5] is 3 of 6 and 5 of 6.

With `N#CCc1ccc(Cl)c(Cl)c1`, the survivor count is, setting by setting: (dose: 100.0 mg/kg/injection, schedule: Q01DX001 (ip), vehicle: saline) 3 of 6; (dose: 200.0 mg/kg/injection, schedule: Q01DX001 (ip), vehicle: saline) 0 of 6; under setting [2], 0 of 6.

Consider `CC(=O)C(=Cc1ccc(Cl)c(Cl)c1)C(C)=O`, for which the survivor count is 2 of 6 under setting [9] and 0 of 6 under setting [10].

Consider `NC(=S)N/N=C/c1ccc(Br)cn1`, for which the survivor count under setting [7] was 0 of 3.

Regarding `CC(=O)N/N=C(/C)C(=O)O`, the survivor count was 5 of 6 under setting [4] and 5 of 6 under setting [6].

Turning to `CCOc1ccc(/C=N\N=C\c2ccc(OCC)cc2)cc1`, the survivor count runs as follows: under setting [9], 6 of 6; (dose: 200.0 mg/kg/injection, schedule: Q04DX003 (ip), vehicle: Klucel (hydroxypropylcellulose) (HPC)) 6 of 6; under setting [10], 6 of 6.

As for `[O]=[Sb]([OH])([OH])[c]1ccccc1`, the survivor count is, setting by setting: (dose: 200.0 mg/kg/injection, schedule: Q01DX009 (sc), vehicle: olive oil, sesame oil, peanut oil) 0 of 6; (dose: 200.0 mg/kg/injection, schedule: Q04DX002 (ip), vehicle: saline with Tween-80) 3 of 3; (dose: 400.0 mg/kg/injection, schedule: Q04DX002 (ip), vehicle: saline with Tween-80) 0 of 3; (dose: 400.0 mg/kg/injection, schedule: Q04DX003 (sc), vehicle: olive oil, sesame oil, peanut oil) 0 of 6.

With `COc1ccccc1N=Nc1ccc(O)c(C(=O)O)c1`, the survivor count under setting [1] is reported as 1 of 6.

With `O=C(O)c1cccc(F)c1.[Ni]`, the survivor count is, setting by setting: (dose: 100.0 mg/kg/injection, schedule: Q04DX002 (ip), vehicle: gum acacia) 3 of 3; (dose: 200.0 mg/kg/injection, schedule: Q04DX002 (ip), vehicle: gum acacia) 2 of 3; (dose: 400.0 mg/kg/injection, schedule: Q04DX002 (ip), vehicle: gum acacia) 0 of 3.

`c1ccc([P+](COC[P+](c2ccccc2)(c2ccccc2)c2ccccc2)(c2ccccc2)c2ccccc2)cc1`: the survivor count runs as follows: (dose: 50.0 mg/kg/injection, schedule: Q01DX009 (ip), vehicle: Klucel (hydroxypropylcellulose) (HPC)) 0 of 3; (dose: 100.0 mg/kg/injection, schedule: Q01DX009 (ip), vehicle: Klucel (hydroxypropylcellulose) (HPC)) 0 of 3; under setting [9], 0 of 3.

As to `CC1(C)OC(=O)C(=Cc2c(Cl)cccc2Cl)C(=O)O1`, under setting [8], the survivor count is reported as 0 of 6.

Take `CCN1CC=CCC1`: the survivor count is, setting by setting: (dose: 200.0 mg/kg/injection, schedule: Q01DX009 (ip), vehicle: saline) 0 of 6; (dose: 200.0 mg/kg/injection, schedule: Q04DX003 (ip), vehicle: saline) 1 of 6; under setting [11], 0 of 6.

As to `NC(CS(=O)c1ccc(Cl)cc1)C(=O)O` (configuration not stated), the survivor count (dose: 400.0 mg/kg/injection, schedule: Q04DX003 (ip), vehicle: saline with Tween-80) was 0 of 6.

Consider `CCc1cccc(CC)c1NC(=O)NS(=O)(=O)c1ccccc1`, for which the survivor count under setting [8] is on record as 1 of 6.

Regarding `CC(C)N(CCN)C(C)C`, under setting [11], the survivor count is 1 of 6.
